The target of one assay is C3G-AAAP (human) (UniProt Q13905). In words: ITC; single-PRM mutants of C3G in the cell titrated with full-length CrkL or CrkL-SH3N; 25 °C; 1:1 model in SEDPHAT; N is the competent fraction of C3G; both purified.
For a further assay, the target named is C3G-AAAP-Y554H (human) (UniProt Q13905). The assay is described as above.
Assay [1] deals with C3G-PPAA-mEGFP (HEK293T, transient) (human) (UniProt Q13905). In words: co-IP; HEK293T cells transiently expressing C3G-mEGFP, lysed 48 h after transfection; abGFP4 nanobody resin against GFP; endogenous CrkL by western blot.
In assay [2] the target is C3G-PAAA-mEGFP (HEK293T, transient) (human) (UniProt Q13905). The description is as above.
The target in assay [3] is C3G-AAPP-mEGFP (HEK293T, transient) (human) (UniProt Q13905). The description is as above.
Assay [4] concerns the target C3G-APAA-mEGFP (HEK293T, transient) (human) (UniProt Q13905). The assay is described as above.
The target in assay [5] is C3G-APAA-mEGFP (Jurkat, stable) (human) (UniProt Q13905). Briefly: co-IP; Jurkat cells stably expressing C3G-mEGFP; lysate (0.5% Triton X-100, 150 mM NaCl) on abGFP4 nanobody resin against GFP overnight at 4 °C; endogenous CrkL by western blot.
Assay [6] deals with C3G-PPAA-mEGFP (Jurkat, stable) (human) (UniProt Q13905). Described as above.
Assay [7] has as its target C3G-PAAA-mEGFP (Jurkat, stable) (human) (UniProt Q13905). The description is as above.
The target of assay [8] is C3G-AAPP-mEGFP (Jurkat, stable) (human) (UniProt Q13905). Described as above.

Sequences of proteins named here, by UniProt entry; tags and fusion partners are left off. A change or cut given only in a name is not applied to a line headed by its entry.
UniProt Q13905: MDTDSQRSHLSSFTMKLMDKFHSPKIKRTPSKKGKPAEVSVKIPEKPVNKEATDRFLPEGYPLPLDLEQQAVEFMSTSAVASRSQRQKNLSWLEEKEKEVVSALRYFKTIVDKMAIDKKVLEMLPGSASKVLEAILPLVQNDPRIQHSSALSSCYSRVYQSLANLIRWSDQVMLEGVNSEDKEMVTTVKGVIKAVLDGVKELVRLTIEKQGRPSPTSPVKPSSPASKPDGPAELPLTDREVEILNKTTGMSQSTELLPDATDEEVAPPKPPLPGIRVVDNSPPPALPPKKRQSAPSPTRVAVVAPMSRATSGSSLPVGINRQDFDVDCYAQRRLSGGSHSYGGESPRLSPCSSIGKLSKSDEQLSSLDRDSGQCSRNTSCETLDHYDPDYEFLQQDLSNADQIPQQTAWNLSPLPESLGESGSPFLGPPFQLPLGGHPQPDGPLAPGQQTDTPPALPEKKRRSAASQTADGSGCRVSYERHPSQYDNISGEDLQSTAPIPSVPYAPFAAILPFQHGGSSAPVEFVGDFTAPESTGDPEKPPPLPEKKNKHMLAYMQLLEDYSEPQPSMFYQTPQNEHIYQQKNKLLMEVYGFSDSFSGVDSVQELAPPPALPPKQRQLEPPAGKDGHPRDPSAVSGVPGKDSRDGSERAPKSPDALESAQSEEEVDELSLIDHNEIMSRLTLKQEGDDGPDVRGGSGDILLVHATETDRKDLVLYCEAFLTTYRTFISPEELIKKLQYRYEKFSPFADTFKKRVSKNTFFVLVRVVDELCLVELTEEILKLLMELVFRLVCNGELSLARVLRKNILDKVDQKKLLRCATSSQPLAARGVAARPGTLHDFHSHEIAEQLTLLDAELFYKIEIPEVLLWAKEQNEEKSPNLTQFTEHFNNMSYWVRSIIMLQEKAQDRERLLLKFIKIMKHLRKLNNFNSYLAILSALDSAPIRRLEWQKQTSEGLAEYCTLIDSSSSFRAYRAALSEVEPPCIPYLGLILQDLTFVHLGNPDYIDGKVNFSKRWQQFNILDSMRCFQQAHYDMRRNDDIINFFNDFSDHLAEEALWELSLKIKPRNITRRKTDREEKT
UniProt P46109: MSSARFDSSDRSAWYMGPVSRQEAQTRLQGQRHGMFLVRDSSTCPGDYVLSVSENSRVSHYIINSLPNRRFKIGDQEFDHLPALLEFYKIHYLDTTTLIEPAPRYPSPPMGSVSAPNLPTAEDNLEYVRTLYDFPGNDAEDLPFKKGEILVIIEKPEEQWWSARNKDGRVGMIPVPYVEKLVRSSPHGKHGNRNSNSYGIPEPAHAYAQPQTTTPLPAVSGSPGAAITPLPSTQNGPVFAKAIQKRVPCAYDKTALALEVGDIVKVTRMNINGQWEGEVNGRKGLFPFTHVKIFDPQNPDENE

No constants are given. Whether binding was seen depends on the method and setting. Binding can be weak; no strength is given. For some of these results: Binding seen in cells or lysates may run through a third protein.

Our source for the binding values is PMC9896810.

As to “CrkL-SH3N (residues 125-182) (from UniProt P46109 125-182) (domain or fragment)”, the binding entry with C3G-AAAP (human) and with C3G-AAAP-Y554H (human) was “binds” each time.

Regarding “endogenous CrkL (HEK293T cells) (from UniProt P46109 1-303)”, the binding entry in [1], in assay [2], in assay [3] and in assay [4] was “binds” each time.

In the case of “endogenous CrkL (Jurkat cells) (from UniProt P46109 1-303)”, the binding result in assay [5] was “binds”; in assay [6], “binds”; in [7], “binds”; in assay [8], “binds weakly”.
